These are yes or no findings as the source states them, for the method shown. In cells and extracts the contact can be indirect. Here binding means that the protein was enriched with, or labelled near, the bait; the list need not be complete.

Amino acid sequences for entries named in this document (tags omitted).
UniProt Q9BQE3: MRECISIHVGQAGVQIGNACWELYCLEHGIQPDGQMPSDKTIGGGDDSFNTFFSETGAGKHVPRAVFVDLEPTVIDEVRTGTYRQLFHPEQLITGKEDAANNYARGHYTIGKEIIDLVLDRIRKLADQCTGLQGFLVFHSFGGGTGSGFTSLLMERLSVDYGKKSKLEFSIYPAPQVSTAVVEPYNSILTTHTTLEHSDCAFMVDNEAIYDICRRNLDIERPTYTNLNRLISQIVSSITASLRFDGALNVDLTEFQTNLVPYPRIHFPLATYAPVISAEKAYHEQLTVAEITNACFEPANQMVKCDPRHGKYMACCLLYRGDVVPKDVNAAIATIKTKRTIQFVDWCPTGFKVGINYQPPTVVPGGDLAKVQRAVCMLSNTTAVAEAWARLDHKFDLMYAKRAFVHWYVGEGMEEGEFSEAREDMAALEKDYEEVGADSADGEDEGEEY

The assay concerns the target T1, HDAC8 (human (endogenous in HeLa and HEK 293 T)) (UniProt Q9BY41).
T1 sequence: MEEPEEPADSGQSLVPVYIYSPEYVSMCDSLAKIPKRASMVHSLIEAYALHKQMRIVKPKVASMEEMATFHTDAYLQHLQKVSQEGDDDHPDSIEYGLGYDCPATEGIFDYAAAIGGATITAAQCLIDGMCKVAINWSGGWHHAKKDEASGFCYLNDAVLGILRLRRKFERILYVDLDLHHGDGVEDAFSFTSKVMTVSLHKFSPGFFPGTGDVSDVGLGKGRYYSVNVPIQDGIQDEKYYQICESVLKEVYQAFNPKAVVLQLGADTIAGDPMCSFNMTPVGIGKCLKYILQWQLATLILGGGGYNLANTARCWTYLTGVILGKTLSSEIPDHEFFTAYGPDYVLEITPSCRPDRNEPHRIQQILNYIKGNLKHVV
As to the kind of experiment: affinity purification with mass spectrometry; HeLa lysate (approx. 500 μg total protein) with 2 μg anti-HDAC8 antibody overnight at 4 °C, Protein A beads; 10% SDS-PAGE, Coomassie; band excised, MALDI TOF-TOF, Mascot search.

On to “Alpha tubulin (TUBA1-C, Human Alpha Tubulin chain 1 C isoform) (from UniProt Q9BQE3 1-449)”, for which the binding result is “binds”.

Source of the values: publication PMC5930436, “Overexpressed HDAC8 in cervical cancer cells shows functional redundancy of tubulin deacetylation with HDAC6” (Cell Communication and Signaling : CCS, 2018).
